Measured values as given in PubChem BioAssay AID198 (DTP/NCI, 2004).
The list does not hold the whole screen: it is rich in T/C values a quarter to a half above the control, in often repeated tests (any T/C) and in doses without a T/C. Further doses and runs are listed elsewhere. T/C is the treated group as % of the vehicle group. Some entries give survivors of the animals treated and no T/C: the source holds a T/C of zero for them, seemingly a mark for toxic or unscored doses. Some survivor counts are full or nearly so, which does not show that the dose was tolerated: the source hardly ever lists a survival T/C far under the control, and the zero likely stands for such cases as well. Counts of survivors are from the toxicity check (mostly the fifth day) where no day follows; animals may have died later. Schedules are NCI's codes, read here as Q, the interval in days (D) or hours (H), X, the number of doses. Brackets with × give the number of equal values in this list. Where survival is the endpoint, this PubChem deposit counts one and a half times the control or more as active, and values a quarter to a half above the control carry no call in these data; other NCI protocols may use other cut-offs. Some entries hold several experiments; the results are listed from low to high.

Test system: B16 melanoma ip, C57BL/6 mice, median survival T/C
Assay: NCI In Vivo Anticancer Drug Screen. Data for tumor model B16 Melanoma (intraperitoneal) in C57BL/6 mice
Details: T/C endpoint: median survival time, vehicle: saline, higher T/C = longer survival
Method: The antitumor activity of compounds was measured in mice bearing transplantable tumors. Survival or tumor size were measured and the results are expressed as the measurement made in the treated group (T) divided by the measurement made in the vehicle treated control group (C). The tumor model used in this assay is B16 Melanoma (intraperitoneal) in C57BL/6 mice

[1] = dose: 0.5 mg/kg/injection, schedule: Q01DX009 (ip)
[2] = dose: 0.4 mg/kg/injection, schedule: Q01DX009 (ip)

SMILES: C1CN1c1nc(N2CC2)nc(N2CC2)n1
- T/C [1]: 140 % of control
- survivor count [1]: 10 of 10
- survivor count (dose: 1.0 mg/kg/injection, schedule: Q01DX009 (ip)): 10 of 10

SMILES: CC[C@H]1CN2CCc3cc(OC)c(OC)cc3[C@@H]2C[C@@H]1C[C@H]1NCCc2cc(OC)c(OC)cc21
- T/C (dose: 4.0 mg/kg/injection, schedule: Q03DX005 (ip)): 129 % of control
- T/C (dose: 8.0 mg/kg/injection, schedule: Q03DX005 (ip)): 141 % of control

SMILES: CN1CCN(CCCN2c3ccccc3Sc3ccc(C(F)(F)F)cc32)CC1
- survivor count (dose: 50.0 mg/kg/injection, schedule: Q01DX009 (ip)): 6 of 10
- survivor count (dose: 100.0 mg/kg/injection, schedule: Q01DX009 (ip)): 0 of 10

SMILES: COC1=C(N)C(=O)c2nc(-c3nc(C(=O)O)c(C)c(-c4ccc(OC)c(OC)c4O)c3N)ccc2C1=O
- T/C (dose: 0.1 mg/kg/injection, schedule: Q01DX009 (ip), evaluated on day 35): 106 % of control
- T/C (dose: 0.1 mg/kg/injection, schedule: Q01DX009 (ip), evaluated on day 60): 106 (2×), 115, 217 % of control
- T/C (dose: 0.2 mg/kg/injection, schedule: Q01DX009 (ip), evaluated on day 35): 90 % of control
- T/C (dose: 0.2 mg/kg/injection, schedule: Q01DX009 (ip), evaluated on day 60): 109, 113, 117, 118 % of control
- T/C [2]: 121 % of control
- survivor count [2]: 10 of 10 (2×)
- survivor count (dose: 0.8 mg/kg/injection, schedule: Q01DX009 (ip)): 6 of 10
